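Enzyme assay of histidyl-tRNA synthetase; the read-out is not stated. Target: Histidine-tRNA ligase, Leishmania infantum (UniProt A4I591). Compounds at 30 µM. Direction is inferred from retests: higher values go with stronger inhibition. The assay is labelled LdHisRS but filed under L. infantum. Size under these conditions: about 69,000 compounds, about 410 of them at 50% or above in at least one test.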

Protein sequences, listed by entry. Tags and fused reporters are not part of them. Residues count along the entry.
UniProt A4I591, 1-473: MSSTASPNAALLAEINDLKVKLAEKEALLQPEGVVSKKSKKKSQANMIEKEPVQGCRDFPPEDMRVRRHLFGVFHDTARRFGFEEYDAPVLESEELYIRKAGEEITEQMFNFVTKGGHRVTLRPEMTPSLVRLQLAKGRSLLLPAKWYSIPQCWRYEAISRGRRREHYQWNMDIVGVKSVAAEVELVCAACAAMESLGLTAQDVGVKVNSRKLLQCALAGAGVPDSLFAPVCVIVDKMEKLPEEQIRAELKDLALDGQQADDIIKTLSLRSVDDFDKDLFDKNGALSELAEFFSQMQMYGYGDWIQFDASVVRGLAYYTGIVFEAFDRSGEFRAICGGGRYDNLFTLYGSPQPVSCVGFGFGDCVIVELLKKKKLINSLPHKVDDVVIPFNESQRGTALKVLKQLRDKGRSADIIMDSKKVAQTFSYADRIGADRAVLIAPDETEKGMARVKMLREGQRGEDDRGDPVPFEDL

The filed quantity is “Percent Effect” (%). The controls that fix the scale are not given in the record; negative values are as filed. This is an unselected part of the compounds tested.

CC(C)(C)OCCN(Cc1cccc(O)c1)C1CCC(O)CC1 (centres unmarked) read 13.68%.
O=C(Cn1nnn(-c2cccs2)c1=O)N(CC1CCOC1)C1CC1 (centres unmarked) read 8.791%.
CC(c1ccc(F)c(F)c1)N1CCN(Cc2nccn2C)CC1 (centres unmarked) read 0%.
O=C(NCCN1CCCCC1)C(c1ccccc1)N1CCCC1 (centres unmarked) read 3.96%.
O=C1CCCCN1Cc1cccc(OC(F)F)c1 read 1.667%.
Cc1nc(CC(=O)N2CCN(C(C)c3ccccc3F)CC2)cs1 (centres unmarked) read 4%.
c1c(CN2CCCCC2)nc2n1CCN(CC1CC1)C2 read 19.74%.
CN1C(=O)CC[C@]12CC[C@@H](NC(=O)NCc1cccnc1)CC2 read 2.703%.
O=C(NCc1cc[nH]n1)NCC(c1ccccc1Cl)N1CCCC1 (centres unmarked) read 18.87%.
COc1cc(C2(C(=O)N3CCN(CC(C)O)CC3)CC2)ccc1C (centres unmarked) read 19.18%.
Cn1cc(C(=O)N2CCC(Cc3nccs3)CC2)cn1 read 2.857%.
CCN1CCN(C(=O)Cc2ccc(S(=O)(=O)C(F)F)cc2)CC1 read 12.82%.
CC(C)(C(=O)NCc1n[nH]c(=O)[nH]1)c1ccc(F)cc1 read 9.948%.
Cc1cc(C2CCCN2CCCc2nc3ccccc3o2)on1 (centres unmarked) read 16.67%.
CC(C)N(Cc1ccc(C#N)cc1)C(=O)Nc1ccncc1 read 10.53%.
NCCc1n[nH]c(=O)n1-c1cccc2ccccc12 read 8.197%.
Cc1ccc(CN2CCOC3(CCN(CC4CCOC4)CC3)C2)cc1 (centres unmarked) read 13.64%.
CC(C)CCN1CCC2(CC1)CN(C(=O)c1cnccn1)CCO2 read 16.98%.
CCC(C)n1c(SCC(=O)N2CCOCC2)nc2cc(C)[nH]c2c1=O (centres unmarked) read 10.53%.
Cc1nccn1CCC1CCCCN1C(=O)c1ccc2nonc2c1 (centres unmarked) read 1.042%.
COc1cc(Cl)ccc1C(=O)N1CCCC(n2nc(C)nc2C)C1 (centres unmarked) read 3.39%.
Cc1nnc(N2CCCC3(CN(c4ccccn4)CCO3)C2)o1 (centres unmarked) read 17.82%.
CC(NC(=O)c1cnccn1)c1nnc2ccccn12 (centres unmarked) read 19.18%.
Cn1cc(NS(=O)(=O)c2ccc(C(F)(F)F)cc2)ccc1=O read 38.18%.
COC(=O)c1ccc(CNCc2ccn(C)n2)cc1 read 18.56%.
CCNc1nc(-c2cccnc2)c(-c2ccnc(NCCO)n2)s1 read 17.14%.
CC(C)CN1C(=O)CO[C@@H]2CN(C(=O)N3CCOCC3)C[C@H]21 read 5.263%.
Cc1ccc(Cn2cc(C)c(N)n2)cc1 read 0%.
Cc1cnn(CC2CN(Cc3nnc(-c4ccccc4)o3)CCO2)c1 (centres unmarked) read 11.61%.
CC(NC(=O)NCCc1nc(C(F)(F)F)cs1)C(=O)N(C)C (centres unmarked) read 15.32%.
CCCn1ccnc1CN1CCN(C2CCOCC2)CC(C(N)=O)C1 (centres unmarked) read 6%.
COC(=O)c1ccc(NC(C)c2ccc3c(c2)CC(=O)N3)nn1 (centres unmarked) read 20.21%.
Cc1cc(CNc2ccnn2CC(C)C)ccc1-n1cncn1 read 12.82%.
CCc1noc(C(C)N2CCN(CCOCC(F)(F)F)CC2)n1 (centres unmarked) read 14.68%.
Cc1occc1C(=O)N1CCc2c(COCC3CC3)cncc2C1 read 21.05%.
O=C(Cc1cccs1)NCC1COCc2c(-c3ccoc3)nnn2C1 (centres unmarked) read -50%.
COCC1CN(C(=O)c2ccnnc2)Cc2c1cnn2C (centres unmarked) read 10.95%.
Cn1c(CN2CCOCC2)nnc1C1CCCN(C(=O)CCC2CC2)C1 (centres unmarked) read 11.11%.
C[C@H](O)c1cnn(-c2ccccc2)c1 read 3.109%.
CO[C@@H]1CC[C@H]2[C@H]1OCCN2C(=O)COc1ccc(C)cc1 read 17.27%.
CCn1cc(-c2n[nH]c(=O)n2-c2ccc(OC)c(OC)c2)c(C)n1 read 21.43%.
CS(=O)(=O)NCCCN1CCCCC1c1cc2ccccc2[nH]1 (centres unmarked) read 10.11%.
COCC1CCN(CCCc2cn[nH]c2)CC1 read 24.66%.
Cn1c(=O)n(C)c2nc(Br)c(CC(=O)c3ccccc3)n2c1=O read 14.29%.

Repeated from the top, 2 entries:

| Compound | percent effect |
|---|---|
| `CC(C)(C)OCCN(Cc1cccc(O)c1)C1CCC(O)CC1` (centres unmarked) | 13.68 |
| `O=C(Cn1nnn(-c2cccs2)c1=O)N(CC1CCOC1)C1CC1` (centres unmarked) | 8.791 |

Measurements from “University of Dundee, Small-Polar-MMV Screening Library” (2021), ChEMBL document CHEMBL3988442.